# Some of the results follow.
# By UniProt entry, the sequences of proteins in these tests, tags left out.
# UniProt Q0JBA9, entry or part of it: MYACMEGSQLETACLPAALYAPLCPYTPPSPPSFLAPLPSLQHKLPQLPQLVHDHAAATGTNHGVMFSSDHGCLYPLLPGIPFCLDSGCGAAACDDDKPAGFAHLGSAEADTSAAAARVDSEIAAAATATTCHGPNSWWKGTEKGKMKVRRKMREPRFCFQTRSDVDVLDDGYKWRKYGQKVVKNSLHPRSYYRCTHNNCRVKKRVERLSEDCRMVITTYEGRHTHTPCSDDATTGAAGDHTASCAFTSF
# Molecular target: OsWRKY34 (Oryza sativa, UniProt Q0JBA9 1-250)
# Assay: protein-binding microarray (RPBM); PBS, 2% BSA, 51.3 ng/ul salmon testes DNA, 50 uM zinc acetate, 200 nM TF, 25 C, 1 h; high values mean tight binding
# Conditions: protein: recombinant; tags: N-terminal polyhistidine and DsRed monomer fusion (pET32a); label: CyDye5-dUTP incorporated in the synthesized complementary strand; 3' TTTTT single-stranded linker to array surface; dsDNA, one strand shown
# Summary of the method: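 An Axon 4000B scanner gave the binding signal as per-feature fluorescence intensity in arbitrary units. This followed washing of a custom Agilent array that had been incubated for 1 h at 25 °C with 200 nM protein in PBS, 2% BSA, salmon testes DNA and 50 µM zinc acetate. The proteins were transcription factors fused at the N-terminus to polyhistidine and DsRed, expressed in E. coli BL21-CodonPlus and purified on Ni–NTA.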
row,Sequence,binding signal
1,CTATTCTTGTGTTTTTTTCTATGTTTAATCCTATGTTTTACGGAGTCACCTAGTGCAG,16600 fluorescence intensity (a.u.)
2,CTCTATTCCCCTTTTCTTTCTTTTGGCGCACTATTCATTGCGGAGTCACCTAGTGCAG,8180 fluorescence intensity (a.u.)
3,TGGGCGGGTGTGTCGGATGTTGACGATGGCGAAGGAGAGGCGGAGTCACCTAGTGCAG,11300 fluorescence intensity (a.u.)
4,ACTCGGCCTTCGTTCAAATTTCAGCCCGTTAGGCTTCGTACGGAGTCACCTAGTGCAG,10400 fluorescence intensity (a.u.)
5,GCTGCCATCACCTATGTAGACCCCTGCCACCAACCGTGCTCGGAGTCACCTAGTGCAG,8140 fluorescence intensity (a.u.)
6,TATATATATATATATATATATATTCACAAATTATTTTTCACGGAGTCACCTAGTGCAG,23500 fluorescence intensity (a.u.)
7,TTTTTGGGTGGGAGTTGTATTTTTTTAACATGTGGGAAAACGGAGTCACCTAGTGCAG,21300 fluorescence intensity (a.u.)
8,CGCCTCGCCACCTCGCTCACTACCTACCTCTCCACCAATGCGGAGTCACCTAGTGCAG,8360 fluorescence intensity (a.u.)
9,CACCGTCTTTTTAAGTTTGTCATTTGATCCATCATTTTTACGGAGTCACCTAGTGCAG,12200 fluorescence intensity (a.u.)
10,GCCTCGATCGCGGCGGTGGCGGTGGGGAGGGGAGCGCACCCGGAGTCACCTAGTGCAG,19000 fluorescence intensity (a.u.)
11,CTAACTTGCAAACTTTGTTGCCTTTATGAATACACATGCTCGGAGTCACCTAGTGCAG,8450 fluorescence intensity (a.u.)
12,GAACTCGAGTAAACCAGCAGCTTCTGTTTCTTGGCCACATCGGAGTCACCTAGTGCAG,10100 fluorescence intensity (a.u.)
13,GAGTATTGTGCGTCCATATCCGCTCCGTTTTCGTCCTATACGGAGTCACCTAGTGCAG,8750 fluorescence intensity (a.u.)
14,GGCCCTGAATCCCCTACAATCTCTGCCTGACATATAGGGACGGAGTCACCTAGTGCAG,8420 fluorescence intensity (a.u.)
15,ATGTCGCTGTGGCTCATCCGGCCCAAGCCCATTTCCCCACCGGAGTCACCTAGTGCAG,8910 fluorescence intensity (a.u.)
16,GGCAAACCACGCGTCTCTCTTTGGTATTCGTCTCTCCATGCGGAGTCACCTAGTGCAG,10600 fluorescence intensity (a.u.)
17,ACCACCACCACCCCACGCGGGATATATATTAATTAATCAACGGAGTCACCTAGTGCAG,10200 fluorescence intensity (a.u.)
18,CGTTCGCTCATCTCATTCGTCGCGGCCCCTCGCCTCTGAACGGAGTCACCTAGTGCAG,15000 fluorescence intensity (a.u.)
19,GGCGTCTCCGCCCGCCGTCTCGTCTCGTTTCTCATCTCAACGGAGTCACCTAGTGCAG,8640 fluorescence intensity (a.u.)
20,CCCCATCCTCCTCTCCTCGCTGCCGTTTGCTTCACTCCCACGGAGTCACCTAGTGCAG,11100 fluorescence intensity (a.u.)
21,GGAGGTGGGGACCGGTGTGGAGAGGAGGATTTTATTTTTTCGGAGTCACCTAGTGCAG,12000 fluorescence intensity (a.u.)

row,Sequence,binding signal
1,ATCCTCCTCCTCCGCTTGGGCCATTTTCGGCCCATTCCTTCGGAGTCACCTAGTGCAG,8770 fluorescence intensity (a.u.)
2,GTTTGATTTTGTGATGCGTCTTCGGTTAGACTTTGAACCTCGGAGTCACCTAGTGCAG,8240 fluorescence intensity (a.u.)
3,ATGTTCCGAACAACGTGTTGTGTATTTTTCCTGTGGTTTTCGGAGTCACCTAGTGCAG,9390 fluorescence intensity (a.u.)
4,CATCTTCCACTCAGTCACTCTCCGTCCTCTCCTGTCGACGCGGAGTCACCTAGTGCAG,11400 fluorescence intensity (a.u.)
5,GCTCGCCACACACCCCAAATCCTCCGCGCGGCCACGCCTACGGAGTCACCTAGTGCAG,8240 fluorescence intensity (a.u.)
6,CTCCTCCGGCCGCCTCCGCCTCCGCCTCCGCTCCCGCCTGCGGAGTCACCTAGTGCAG,10700 fluorescence intensity (a.u.)
7,TTCGGCACCACGATCCACCTCCGGGATTGCCGCCGCGCCACGGAGTCACCTAGTGCAG,8240 fluorescence intensity (a.u.)
8,CCGCCGGACTCTCAAAATCCCAAGTCTCAACTCGATCAGCCGGAGTCACCTAGTGCAG,8170 fluorescence intensity (a.u.)
9,ATCCGATTTTTTTTCGCAATCTCCGAAATTTCACTTCTATCGGAGTCACCTAGTGCAG,11200 fluorescence intensity (a.u.)
10,TTATGATTTCAACATGATAGTTGGGTAGTGATGGTCCACTCGGAGTCACCTAGTGCAG,9630 fluorescence intensity (a.u.)
11,CTCTGAATCCACACAACCCTATCCTTATCCCCAACGCTACCGGAGTCACCTAGTGCAG,8470 fluorescence intensity (a.u.)
12,GTCAACTGCCTATCCTAGATATCTATCACTACCGAAAGCCCGGAGTCACCTAGTGCAG,8930 fluorescence intensity (a.u.)
13,TACATAACCAGTATGTTTTGCTAGCCCATTTGTCTTGTTTCGGAGTCACCTAGTGCAG,9880 fluorescence intensity (a.u.)
14,GCACACGCATACACATCGCAAGCCGCCCAAACCCTACACACGGAGTCACCTAGTGCAG,9240 fluorescence intensity (a.u.)
15,CCTATAATTCACCAACCGGCTTTTACATCCTTCATACTTCCGGAGTCACCTAGTGCAG,9490 fluorescence intensity (a.u.)
16,GCGCCGTGGGGTTCATTGGGACTTGGGAGGGATAGGAAATCGGAGTCACCTAGTGCAG,16300 fluorescence intensity (a.u.)
17,TTCACTATAAATATATGGTCCACCTGTCTGTCTCACATATCGGAGTCACCTAGTGCAG,12400 fluorescence intensity (a.u.)
18,GCATATTCATTTTTGCTTTTCAAATTTTATTTTCAAATTTCGGAGTCACCTAGTGCAG,8450 fluorescence intensity (a.u.)
19,GGAGCAATTTTTATGGGTGGGCTTCGAGCCTTCCTTGTCCCGGAGTCACCTAGTGCAG,10300 fluorescence intensity (a.u.)
20,TATATTCTCATGCACCAAGCAACCACACGTACACCTATATCGGAGTCACCTAGTGCAG,8020 fluorescence intensity (a.u.)
21,GCGTGGGGCGCCGGTGGCGGAGGGTGGGGACGACAACCAGCGGAGTCACCTAGTGCAG,9770 fluorescence intensity (a.u.)

# Individual results from above.
# binding signal with TTATGATTTCAACATGATAGTTGGGTAGTGATGGTCCACTCGGAGTCACCTAGTGCAG is entered as 9630 fluorescence intensity (a.u.)
# binding signal with GCTCGCCACACACCCCAAATCCTCCGCGCGGCCACGCCTACGGAGTCACCTAGTGCAG is entered as 8240 fluorescence intensity (a.u.)
# binding signal with ATCCTCCTCCTCCGCTTGGGCCATTTTCGGCCCATTCCTTCGGAGTCACCTAGTGCAG is entered as 8770 fluorescence intensity (a.u.)
# binding signal with TACATAACCAGTATGTTTTGCTAGCCCATTTGTCTTGTTTCGGAGTCACCTAGTGCAG is entered as 9880 fluorescence intensity (a.u.)
# binding signal with CATCTTCCACTCAGTCACTCTCCGTCCTCTCCTGTCGACGCGGAGTCACCTAGTGCAG is entered as 11400 fluorescence intensity (a.u.)

# The list goes on:

row,Sequence,binding signal
1,CAGTCTTGTCCTTTTGCTTTACAGCCCTTTTGCAAATGCACGGAGTCACCTAGTGCAG,11700 fluorescence intensity (a.u.)
2,ATTCTTCCGGGGTGTACATTTTAGAGTCCAGTGCAACAGTCGGAGTCACCTAGTGCAG,8220 fluorescence intensity (a.u.)
3,TTTGCGTAGTGGAGGTTTTTTTCCTTTTTTTTTTTTTTTTCGGAGTCACCTAGTGCAG,11800 fluorescence intensity (a.u.)
4,ATTGTTGCGGTTTGGACTACTATAAACAACTTTTCTCGTCCGGAGTCACCTAGTGCAG,8970 fluorescence intensity (a.u.)
5,TCTTGTGTGGGCATCTTAACTTCATATTTGCAATATATTTCGGAGTCACCTAGTGCAG,8860 fluorescence intensity (a.u.)
6,TCCTTTACCTTTTCTGTACTTGTAGAGTATATTATAATAACGGAGTCACCTAGTGCAG,8890 fluorescence intensity (a.u.)
7,TTTTCTCAATGCAGTCTTTTTCTGTTGAGGGTGTGTTTAGCGGAGTCACCTAGTGCAG,8540 fluorescence intensity (a.u.)
8,GTACACGTGGGCGGGGCAGATCGATCTTAGATACATACAGCGGAGTCACCTAGTGCAG,9420 fluorescence intensity (a.u.)
9,TTCGTTTGACAATACACTTTCTCAACTTCTACTATCTTATCGGAGTCACCTAGTGCAG,8250 fluorescence intensity (a.u.)
10,GTGGCTACGTATCAAAGGTGGTTGGGTGGTGGTGGCTACTCGGAGTCACCTAGTGCAG,9720 fluorescence intensity (a.u.)
11,TACTCCATTCCATCCGTTTGCAAATACTTCTCAATTTTTACGGAGTCACCTAGTGCAG,10400 fluorescence intensity (a.u.)
12,TTCTATCTTGACTGTTGACTGAAAATTTTACTAGTACCTTCGGAGTCACCTAGTGCAG,9410 fluorescence intensity (a.u.)
13,ATCCCTCCACCAACCAGCACGTTTTCTCCTCACTTAATCACGGAGTCACCTAGTGCAG,8570 fluorescence intensity (a.u.)
14,GTGGGGCTCAGGGGTTTATCTCCAATTAGTTTGGAATTCTCGGAGTCACCTAGTGCAG,9710 fluorescence intensity (a.u.)
15,TTATGTTTTCCGTATGCACTGTTCTGGATGAGCACACGCTCGGAGTCACCTAGTGCAG,9020 fluorescence intensity (a.u.)
16,GCTCTTATTCCGGGGTTTAAGCGTTTTTACCGAAGCGAAACGGAGTCACCTAGTGCAG,10400 fluorescence intensity (a.u.)
17,CTGCCTCGCTGCCGCCTGCCGTCTCCCCGGGCCCATCTTTCGGAGTCACCTAGTGCAG,8210 fluorescence intensity (a.u.)
18,GCCGCCTGCCGCCGCCGCTTGCCCGCTGTGCCACCCACCCCGGAGTCACCTAGTGCAG,8050 fluorescence intensity (a.u.)
19,ATCTCCGTCGGTGGGGAAAAGGAGGTGGGGAGGGGAGGAGCGGAGTCACCTAGTGCAG,18800 fluorescence intensity (a.u.)
20,GATTTAAAATATCTTCATTTCCACACAACGTTGACTGGGTCGGAGTCACCTAGTGCAG,9510 fluorescence intensity (a.u.)
21,CTCTAGCTCGTTGTAGCAATATCTCGTTGTAGCCATTTATCGGAGTCACCTAGTGCAG,8110 fluorescence intensity (a.u.)

row,Sequence,binding signal
1,CACCCTCGTTTCCACCCGCGCCCGCGCGCCGCGCGCCACTCGGAGTCACCTAGTGCAG,10800 fluorescence intensity (a.u.)
2,GACATTACGGGCCCACAAGTACGCGTCCCCACCAGCCATACGGAGTCACCTAGTGCAG,8490 fluorescence intensity (a.u.)
3,TATGCATCACCTCGTAATCCACAACTGACTTACCCTTTCTCGGAGTCACCTAGTGCAG,12300 fluorescence intensity (a.u.)
4,TTTTAGTCTAACTGGTATGCGGGCCCCACATTTATTTTTTCGGAGTCACCTAGTGCAG,9210 fluorescence intensity (a.u.)
5,ATTTCGCATCGGTTTCTTCGTCAACTGATCCAATTAATTCCGGAGTCACCTAGTGCAG,8710 fluorescence intensity (a.u.)
6,ACCCTTGTTCATTCCTCCTCGCCTCGCCTCGCATCTCGGCCGGAGTCACCTAGTGCAG,8690 fluorescence intensity (a.u.)
7,CGTTTGGCCATTGTTCTCATTCAAAATTTTATACAAATATCGGAGTCACCTAGTGCAG,8980 fluorescence intensity (a.u.)
8,TCATACCGACTTCCCTTACTTCCACTTTAACATTTCTAGACGGAGTCACCTAGTGCAG,8290 fluorescence intensity (a.u.)
9,TCTCACCTCTCACTTCGACTTCTCGTCGCTGGCCGCCTCTCGGAGTCACCTAGTGCAG,10100 fluorescence intensity (a.u.)
10,GCTTCCCTTTCACTGCTCAAATGGCGTTTTGCCGCCCCACCGGAGTCACCTAGTGCAG,9430 fluorescence intensity (a.u.)
11,GTTTTTCCTATTCCTACGTTTTCTCAATCCTGCGATTCAACGGAGTCACCTAGTGCAG,9150 fluorescence intensity (a.u.)
12,TTTTTCCTTCTTATTCTGTTTCTGGTTGCTTTCTCACTCTCGGAGTCACCTAGTGCAG,15700 fluorescence intensity (a.u.)
13,CCGCCGCGTCGCGACGTCGACGGCGTTCCCGGCCGCCACCCGGAGTCACCTAGTGCAG,8650 fluorescence intensity (a.u.)
14,ATTGACGGTGATGAGGTATTCAACATTTTTCTTGTCCTTTCGGAGTCACCTAGTGCAG,9970 fluorescence intensity (a.u.)
15,GTATCTGAAGTACCTTGCCTTTGTTATAGCGGGGAAAATACGGAGTCACCTAGTGCAG,9600 fluorescence intensity (a.u.)
16,TCGGAAATTGAGTTCGTTCCTGGTTCTCACACTGCTCAAACGGAGTCACCTAGTGCAG,9190 fluorescence intensity (a.u.)
17,CCCTCTTCTTCGCCTTTGCTTCATGTTTCCGAAAAAGCGACGGAGTCACCTAGTGCAG,10400 fluorescence intensity (a.u.)
18,GTACAGCATAATTTAACCCAACACACACATCCTCCAGGTCCGGAGTCACCTAGTGCAG,8960 fluorescence intensity (a.u.)
19,GTGATGGTTCACTGCTTGTTGCTGGGTTTCGGGTAGGTGACGGAGTCACCTAGTGCAG,15500 fluorescence intensity (a.u.)
20,ATACACGCTCTCACCTCATCTCATCTCGTCGCCATTGACACGGAGTCACCTAGTGCAG,9790 fluorescence intensity (a.u.)
21,GGCCTATATATAACCATTGCTGTTGCCCTAAGAATGAATGCGGAGTCACCTAGTGCAG,9380 fluorescence intensity (a.u.)

# Source: article PMC7819943, “Rice protein-binding microarrays: a tool to detect cis-acting elements near promoter regions in rice”
